The full ranking holds about 33,000 sequences; the median of “E-score (-0.5 to 0.5)” is about -0.015, and the highest 2% start at about 0.3. Some of the results follow.
Target: T1, Abf1 (UniProt P14164)
T1 sequence: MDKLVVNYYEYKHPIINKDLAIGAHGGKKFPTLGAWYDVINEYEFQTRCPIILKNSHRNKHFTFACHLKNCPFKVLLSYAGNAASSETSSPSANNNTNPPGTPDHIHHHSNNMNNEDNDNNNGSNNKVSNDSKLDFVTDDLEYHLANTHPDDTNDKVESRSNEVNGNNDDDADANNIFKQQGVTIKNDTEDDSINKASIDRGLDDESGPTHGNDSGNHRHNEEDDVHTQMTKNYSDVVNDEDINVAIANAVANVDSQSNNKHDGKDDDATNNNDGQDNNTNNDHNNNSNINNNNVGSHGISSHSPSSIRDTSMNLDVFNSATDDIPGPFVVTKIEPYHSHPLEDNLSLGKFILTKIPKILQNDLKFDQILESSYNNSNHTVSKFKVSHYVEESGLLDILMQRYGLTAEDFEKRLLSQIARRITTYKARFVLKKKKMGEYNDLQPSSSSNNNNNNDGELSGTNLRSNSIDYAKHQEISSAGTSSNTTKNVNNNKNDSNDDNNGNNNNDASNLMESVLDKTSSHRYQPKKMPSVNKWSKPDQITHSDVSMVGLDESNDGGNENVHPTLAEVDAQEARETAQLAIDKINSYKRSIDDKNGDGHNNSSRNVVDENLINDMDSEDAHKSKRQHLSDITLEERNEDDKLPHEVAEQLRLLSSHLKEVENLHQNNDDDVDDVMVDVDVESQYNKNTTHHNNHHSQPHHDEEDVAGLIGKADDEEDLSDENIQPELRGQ
Assay: PBM E-score (8-mer binding enrichment) (E-score (-0.5 to 0.5)); higher = stronger / more preferred TF binding
Conditions: protein concentration: 200 nM; construct: GST-full length
Summary of the method: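 For each ungapped eight-base word taken together with its reverse complement, the Universal PBM Analysis Suite assigned an E-score. Binding data came from GST-tagged yeast transcription factors, applied at about 100-200 nM, on universal all-10-mer Agilent arrays made double-stranded by primer extension. Fluorescent anti-GST marked bound protein, and scans were normalised with masliner.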

Row | Sequence | PBM E-score
1 | ACAGACCA | -0.166
2 | ACTAGTAT | 0.109
3 | CAGAGGAC | -0.0805
4 | ATAGAACC | -0.137
5 | CCGGAGAC | -0.00839
6 | CTGCACAG | 0.0656
7 | CACACCAG | -0.142
8 | AATCCCCA | -0.126
9 | ACGACGCA | 0.262
10 | AGTTTTGC | 0.109
11 | CGGACTAA | 0.2
12 | GGGAAGAC | -0.227
13 | TAGCTAAA | 0.202
14 | AGGGATGG | -0.154
15 | GCGAAGCA | 0.0387
16 | AGTAGCCC | -0.131
17 | CGCAGTTC | 0.0394
18 | CCACTAAG | -0.0507
19 | AGTGGCAT | -0.0451
20 | CTTCGGGC | -0.221
21 | GGTACTAC | 0.155
22 | AGGACTGC | -0.279
23 | AGACTCAG | -0.235
24 | CACCGATG | 0.0485
25 | CCCGATTA | 0.118

Row | Sequence | PBM E-score
26 | TATTGGGA | 0.0245
27 | GGAGGACC | -0.182
28 | AGATTTTA | 0.0126
29 | GTATCCAA | -0.0689
30 | GAATTCAC | -0.0247
31 | ATTGACAG | -0.0128
32 | GAAAGTCC | -0.161
33 | AAATTAGA | 0.154
34 | CTCGTTGA | 0.0588
35 | TCCAATCA | 0.00606
36 | CACCGGAA | 0.0954
37 | CCATGTGA | -0.0692
38 | ACCTTTGA | -0.0803
39 | CAGCCGCA | -0.103
40 | GCAATCGA | -0.00403
41 | CGGGTAAC | -0.0444
42 | ACCAGCGA | -0.0642
43 | ATTACGCG | -0.00871
44 | ACGTCATG | 0.197
45 | ATCCTCAA | 0.14
46 | AATCGAGC | -0.0995
47 | CTGACGGA | 0.241
48 | ACACCAAG | -0.226
49 | CCTTCACA | -0.137
50 | CACGGCGA | 0.305

Row | Sequence | PBM E-score
51 | CCAAGGGA | -0.209
52 | AACTTCTG | 3e-05
53 | CCGCGTAC | 0.0414
54 | ACCGACGC | -0.2
55 | CCCACACC | -0.0605
56 | ACTACTCC | 0.0593
57 | GATGTATA | 0.0117
58 | TCCTGGAA | -0.117
59 | AGGTGACC | 0.14
60 | AGCAGCAT | -0.151
61 | CGAGCTGA | 0.0324
62 | GGTGTTCA | -0.188
63 | ACTTTTGC | -0.0352
64 | GTACCTAC | 0.0214
65 | CTCACCGA | -0.0103
66 | ACCTGTTA | -0.148
67 | AAGTTGCT | 0.0439
68 | AGACTAGC | -0.208
69 | CTAGCGTA | -0.253
70 | ACCCGCCG | 0.154
71 | GCTAAGGA | -0.174
72 | CGCACTGA | -0.0751
73 | ACAGGACA | 0.163
74 | TACGAATA | 0.25
75 | CGACAGCG | -0.193

Laid out differently: results already given.

| Row | Sequence | PBM E-score |
| --- | --- | --- |
| 62 | GGTGTTCA | -0.188 |
| 63 | ACTTTTGC | -0.0352 |

Going on with the list:

Row | Sequence | PBM E-score
76 | GGACACTA | -0.0313
77 | AGTATCGA | 0.0629
78 | ACACCCAA | 0.051
79 | AGGCATTG | -0.101
80 | CGAAGGCA | -0.148
81 | ATGTTGGC | -0.0826
82 | AAGTGACC | 0.252
83 | CCAACTTA | 0.158
84 | GAAGCTGC | 0.0193
85 | ATTTCAGG | 0.0205
86 | GCCATTGA | 0.074
87 | CTCTTGGC | -0.151
88 | CGCGTCAC | 0.111
89 | CCTTTGAC | -0.13
90 | AATGTGAG | 0.0378
91 | GTTTAAAA | 0.209
92 | ATGTCACA | 0.282
93 | TGATGGAA | -0.0572
94 | AAGACTAA | -0.00454
95 | ATCTCGCA | 0.136
96 | TCAGCCAA | -0.028
97 | AGAATGCG | 0.117
98 | AGCAGCCG | -0.0296
99 | GACCTTCA | 0.142
100 | ACAGCTCG | -0.142

Row | Sequence | PBM E-score
101 | CGACTGCC | -0.259
102 | ATTAAACG | 0.23
103 | CTAGTAAA | 0.0571
104 | ACAGGCGA | -0.0629
105 | ATCCCAAC | -0.0279
106 | CAAAACTG | 0.0851
107 | AAAGTCGT | -0.0129
108 | AAGCGGCT | -0.101
109 | ACGAAAAC | 0.316
110 | CTGGCTTC | -0.141
111 | CTATCGTC | 0.252
112 | ATCATAGA | 0.204
113 | TAGCGCTA | -0.0709
114 | ATCGGTAC | 0.0552
115 | AAGGACGT | 0.178
116 | TATGGGGA | -0.00725
117 | ACATGCCG | 0.0733
118 | ATCTTTTG | 0.101
119 | ACTACACG | 0.163
120 | AGTTCTTC | -0.0427
121 | CGCTTCAA | 0.162
122 | CCTTTCGA | 0.0566
123 | GCGCTTTA | 0.0924
124 | ACGAGAGC | -0.0578
125 | AGGGCTAA | 0.083

Looked up above.
CCTTTCGA – PBM E-score: 0.0566
AGGACTGC – PBM E-score: -0.279
ATTAAACG – PBM E-score: 0.23
ACACCCAA – PBM E-score: 0.051

Next results

Row | Sequence | PBM E-score
126 | ACTAGCTA | -0.225
127 | TCGGACCA | -0.073
128 | CTATGACC | 0.017
129 | AACTATCG | 0.025
130 | GCGAGATA | 0.116
131 | CACGGCTA | 0.307
132 | CTGGCCTA | -0.202
133 | GAGCAACA | 0.0205
134 | GACTAGGA | -0.0405
135 | AGTTACTA | 0.148
136 | CGATCAAG | -0.0178
137 | ACTGGGAG | -0.146
138 | GCGATAAA | 0.241
139 | CGGCGAGC | -0.0245
140 | GCAAATTA | 0.0305
141 | CCACTGGC | -0.107
142 | AACGCGCT | -0.0715
143 | TGACGGAA | 0.288
144 | AGAGCCCT | -0.171
145 | AGGCACTG | -0.0913
146 | CGAAGACA | -0.003
147 | CCTGCAAG | -0.342
148 | TACTCTAA | -0.00515
149 | AGGGGTCA | -0.181
150 | CATTCGTA | 0.308

Row | Sequence | PBM E-score
151 | ACATCATG | 0.24
152 | GCTGACAC | 0.0512
153 | AAGTTGCC | -0.0116
154 | AAGGCTCA | -0.0222
155 | ATGGCCCG | -0.202
156 | AATAGTAA | 0.192
157 | CAGGCGAA | -0.0244
158 | AGCGGGGG | -0.383
159 | GACAGGGA | -0.07
160 | CGAGTTAG | 0.148
161 | CCCGTAGG | 0.0176
162 | AAAGCGTT | -0.0287
163 | ATAGCCGG | 0.0178
164 | CCTCCATA | 0.0292
165 | GGCACCCA | -0.152
166 | CTACACAA | -0.0251
167 | CGCTCCCA | -0.124
168 | CCTAACTA | 0.0645
169 | ATGGAAAC | -0.0866
170 | CACTGGGG | -0.251
171 | CAGACAAA | 0.041
172 | ATACCCGG | -0.139

Reference: the supplement of paper PMC3334620
